Laboratory results reported in PubChem BioAssay AID274 (DTP/NCI, 2004).
The list is a part of this screen's results and no random one: it gathers tests that were run many times, whatever their T/C, doses with no T/C, and many T/C values between a quarter and a half above the control. Further doses and runs are listed elsewhere. T/C: endpoint of the treated group in % of that of the vehicle group. Some entries give survivors of the animals treated and no T/C: the source files T/C as zero there, which appears to mark a toxic dose or a test without result, not a measured value. Some survivor counts are full or nearly so, which does not show that the dose was tolerated: the source hardly ever lists a survival T/C far under the control, and the zero likely stands for such cases as well. Counts of survivors are from the toxicity check (mostly the fifth day) where no day follows; animals may have died later. Schedule codes are those of the source, read here as Q, the interval in days (D) or hours (H), X, the number of doses. Brackets with × count equal records among those shown. Where survival is the endpoint, this PubChem deposit counts one and a half times the control or more as active, and values a quarter to a half above the control carry no call in these data; other NCI protocols may use other cut-offs. Some T/C values are followed by the survivors on the day toxicity was checked, most often the fifth; where none is given, no animal had died by that day. Some doses were run more than once; the results are listed from low to high. Numbered stars: 1 amine (or outer) side, 2 acyl side, 3 side chain; on linkers, the order of the positions; unused ones are H or OH. Bridge positions count the residues as written; N and C are the ends. Square brackets hold non-standard residues; d marks the D form. Peptide text beside a SMILES is read from it. I, II: the chains in the order shown. Actinocin(9to1) = Cc1c2oc3c(C)ccc(C(=O)[*:1])c3nc-2c(C(=O)[*:2])c(N)c1=O; NMeV = CN[CH](C(=O)O)C(C)C; Aze = O=C(O)[CH]1CCN1; Sar = CNCC(=O)O

Tested on: BDF1 mice, Lewis lung carcinoma iv, survival T/C
Assay: NCI In Vivo Anticancer Drug Screen. Data for tumor model Lewis Lung Carcinoma (intravenous) in B6D2F1 (BDF1) mice
Settings: T/C endpoint: median survival time, higher T/C = longer survival
Protocol: The antitumor activity of compounds was measured in mice bearing transplantable tumors. Survival or tumor size were measured and the results are expressed as the measurement made in the treated group (T) divided by the measurement made in the vehicle treated control group (C). The tumor model used in this assay is Lewis Lung Carcinoma (intravenous) in B6D2F1 (BDF1) mice

[1] = dose: 25.0 mg/kg/injection, schedule: Q01DX009 (ip), vehicle: saline
[2] = dose: 3.0 mg/kg/injection, schedule: Q01DX009 (ip), vehicle: Klucel (hydroxypropylcellulose) (HPC)
[3] = dose: 6.0 mg/kg/injection, schedule: Q01DX009 (ip), vehicle: Klucel (hydroxypropylcellulose) (HPC)
[4] = dose: 50.0 mg/kg/injection, schedule: Q01DX009 (ip), vehicle: Klucel (hydroxypropylcellulose) (HPC)

## Nc1nnc[se]1
dose: 12.5 mg/kg/injection, schedule: Q01DX009 (ip), vehicle: saline with Tween-80
  T/C: 143 % of control
dose: 50.0 mg/kg/injection, schedule: Q01DX009 (ip), vehicle: saline with Tween-80
  survivor count: 10 of 10
dose: 100.0 mg/kg/injection, schedule: Q01DX009 (ip), vehicle: saline with Tween-80
  survivor count: 5 of 10

## O=c1[nH]c(=O)n(C2CC(O)C(CO)O2)cc1F (stereo not given)
dose: 103.0 mg/kg/injection, schedule: Q04DX003 (ip), vehicle: saline, evaluated on day 60
  T/C: 105 and 114 % of control
dose: 103.0 mg/kg/injection, schedule: Q04DX003 (ip), vehicle: saline, evaluated on day 90
  T/C: 102 and 106 % of control
dose: 147.0 mg/kg/injection, schedule: Q04DX003 (ip), vehicle: saline, evaluated on day 60
  T/C: 109 and 114 % of control
dose: 147.0 mg/kg/injection, schedule: Q04DX003 (ip), vehicle: saline, evaluated on day 90
  T/C: 122 and 140 % of control [7 of 8 alive]
dose: 147.0 mg/kg/injection, schedule: Q04DX006 (ip), vehicle: saline
  T/C: 141 % of control
dose: 210.0 mg/kg/injection, schedule: Q04DX003 (ip), vehicle: saline, evaluated on day 60
  T/C: 122 and 132 % of control
dose: 210.0 mg/kg/injection, schedule: Q04DX003 (ip), vehicle: saline, evaluated on day 90
  T/C: 118 [7 of 8 alive] and 133 % of control
dose: 300.0 mg/kg/injection, schedule: Q04DX003 (ip), vehicle: saline, evaluated on day 60
  T/C: 131 and 165 % of control
dose: 300.0 mg/kg/injection, schedule: Q04DX003 (ip), vehicle: saline, evaluated on day 90
  T/C: 146 and 148 % of control
dose: 429.0 mg/kg/injection, schedule: Q04DX003 (ip), vehicle: saline
  survivor count: 8 of 8

## NC(Cc1ccc(N(CCCl)CCCl)cc1)C(=O)O (stereo not given)
dose: 4.0 mg/kg/injection, schedule: Q01DX009 (ip), vehicle: Klucel (hydroxypropylcellulose) (HPC)
  T/C: 130 % of control [7 of 10 alive]
dose: 8.0 mg/kg/injection, schedule: Q01DX009 (ip), vehicle: Klucel (hydroxypropylcellulose) (HPC)
  survivor count: 10 of 10
dose: 16.0 mg/kg/injection, schedule: Q01DX009 (ip), vehicle: Klucel (hydroxypropylcellulose) (HPC)
  survivor count: 10 of 10

## Nc1ccn(C2OC(COP(=O)(O)O)C(O)C2O)c(=O)n1 (stereo not given)
dose: 64.0 mg/kg/injection, schedule: Q01DX009 (ip), vehicle: saline
  survivor count: 9 of 10
dose: 128.0 mg/kg/injection, schedule: Q01DX009 (ip), vehicle: saline
  survivor count: 10 of 10

## CC1CN1CC(O)C(O)CN1CC1C (stereo not given)
dose: 2.0 mg/kg/injection, schedule: Q01DX009 (ip), vehicle: saline
  T/C: 134 % of control
dose: 4.0 mg/kg/injection, schedule: Q01DX009 (ip), vehicle: saline
  survivor count: 10 of 10 (2×)
dose: 8.0 mg/kg/injection, schedule: Q01DX009 (ip), vehicle: saline
  survivor count: 8 of 10

## OCCN1CCN(CC/C=C2/c3ccccc3Sc3ccc(Cl)cc32)CC1
[1]
  survivor count: 9 of 10

## CC[N](CC)[Ge]([CH2]C)[CH2]C.CC[N](CC)[Ge]([CH2]C)[CH2]C
dose: 100.0 mg/kg/injection, schedule: Q01DX009 (ip), vehicle: suspension in saline
  survivor count: 4 of 10

## C[CH2][Sn]([CH2]C)([O]S(C)(=O)=O)[O]S(C)(=O)=O
[1]
  survivor count: 1 of 10

## C[C@H](N)C(=O)N[C@@H]1[C@H]2C(=C(O)C[C@@H](O)[C@@H]2O)C(=O)O[C@]1(C)C(Cl)Cl
[2]
  survivor count: 9 of 10
[3]
  survivor count: 5 of 10

## O=C(O)/C=C/C(=O)Nc1ccc(Cl)c(Cl)c1
dose: 200.0 mg/kg/injection, schedule: Q01DX009 (ip), vehicle: Klucel (hydroxypropylcellulose) (HPC)
  survivor count: 5 of 10
dose: 400.0 mg/kg/injection, schedule: Q01DX009 (ip), vehicle: Klucel (hydroxypropylcellulose) (HPC)
  survivor count: 1 of 10

## O=P(O)(NCCCl)NCCCl
dose: 200.0 mg/kg/injection, schedule: Q01DX001 (ip), vehicle: saline with Tween-80
  survivor count: 10 of 10
dose: 400.0 mg/kg/injection, schedule: Q01DX001 (ip), vehicle: saline with Tween-80
  survivor count: 4 of 10

## CC/C(=C(/CC)c1ccc(O)cc1)c1ccc(O)cc1
dose: 400.0 mg/kg/injection, schedule: Q01DX009 (ip), vehicle: water
  survivor count: 10 of 10

## CN(C)CCN1C(=O)c2cccc3cc(N)cc(c23)C1=O
dose: 32.0 mg/kg/injection, schedule: Q01DX009 (ip), vehicle: saline with Tween-80
  survivor count: 10 of 10

## C[C@@H]1CN(C(=O)CCOS(C)(=O)=O)[C@@H](C)CN1C(=O)CCOS(C)(=O)=O
dose: 200.0 mg/kg/injection, schedule: Q01DX009 (ip), vehicle: saline with Tween-80
  survivor count: 10 of 10

## O=CC(O)C(O)C(O)C(O)C(=O)O.[NH-]C1CCCCC1[NH-].[Pt+2] (stereo not given)
dose: 3.12 mg/kg/injection, schedule: Q01DX009 (ip), vehicle: suspension in saline
  T/C: 125 % of control

## CCC(=O)OCC1OC(n2cnc3c(=S)nc(N)[nH]c32)C(OC(=O)CC)C1OC(=O)CC (stereo not given)
dose: 12.5 mg/kg/injection, schedule: Q01DX009 (ip), vehicle: Klucel (hydroxypropylcellulose) (HPC)
  survivor count: 10 of 10
dose: 25.0 mg/kg/injection, schedule: Q01DX009 (ip), vehicle: Klucel (hydroxypropylcellulose) (HPC)
  survivor count: 10 of 10
[4]
  survivor count: 10 of 10
dose: 100.0 mg/kg/injection, schedule: Q01DX009 (ip), vehicle: Klucel (hydroxypropylcellulose) (HPC)
  survivor count: 10 of 10

## Cc1c2oc3c(C)ccc(C(=O)NC4C(=O)NC(C(C)C)C(=O)N5CCC5C(=O)N(C)CC(=O)N(C)C(C(C)C)C(=O)OC4C)c3nc-2c(C(=O)NC2C(=O)NC(C(C)C)C(=O)N3CCC3C(=O)N(C)CC(=O)N(C)C(C(C)C)C(=O)OC2C)c(N)c1=O (stereo not given) (I: TV[Aze][Sar][NMeV] / II: TV[Aze][Sar][NMeV]; ester I:1-I:C, II:1-II:C; linker I:N-II:N via Actinocin(9to1); configuration not given here)
dose: 900.0 micrograms/kg/injection, schedule: Q04DX003 (ip), vehicle: saline + alcohol
  survivor count: 8 of 8
dose: 1250.0 micrograms/kg/injection, schedule: Q04DX003 (ip), vehicle: saline + alcohol
  survivor count: 7 of 8
dose: 1500.0 micrograms/kg/injection, schedule: Q04DX003 (ip), vehicle: saline + alcohol
  survivor count: 8 of 8
dose: 1800.0 micrograms/kg/injection, schedule: Q01DX001 (ip), vehicle: saline + alcohol
  survivor count: 6 of 8
dose: 3000.0 micrograms/kg/injection, schedule: Q01DX001 (ip), vehicle: saline + alcohol
  survivor count: 0 of 8

## CC(=O)O[C@@H]1CO[C@H]2O[C@H]3[C@@H](C(C=O)=C[C@H](O)[C@@H]4C5=C(C(C)C)CC[C@]5(C)CC[C@@]34C)[C@@]2(O)C1=O
[2]
  survivor count: 4 of 9
[3]
  survivor count: 7 of 10
dose: 12.0 mg/kg/injection, schedule: Q01DX009 (ip), vehicle: Klucel (hydroxypropylcellulose) (HPC)
  survivor count: 1 of 10
dose: 24.0 mg/kg/injection, schedule: Q01DX009 (ip), vehicle: Klucel (hydroxypropylcellulose) (HPC)
  survivor count: 0 of 10

## Nc1ccc(Cl)cc1N
dose: 400.0 mg/kg/injection, schedule: Q01DX009 (ip), vehicle: saline with Tween-80
  survivor count: 1 of 10

## CS(=O)(=O)OCCCNCCCOS(C)(=O)=O
dose: 20.0 mg/kg/injection, schedule: Q01DX009 (ip), vehicle: saline
  survivor count: 10 of 10
dose: 40.0 mg/kg/injection, schedule: Q01DX009 (ip), vehicle: saline
  survivor count: 10 of 10
dose: 80.0 mg/kg/injection, schedule: Q01DX009 (ip), vehicle: saline
  survivor count: 10 of 10 (2×)
dose: 160.0 mg/kg/injection, schedule: Q01DX009 (ip), vehicle: saline
  survivor count: 10 of 10
dose: 320.0 mg/kg/injection, schedule: Q01DX009 (ip), vehicle: saline
  survivor count: 10 of 10

## N=[N+]=CC(=O)OCC(N)C(=O)O (stereo not given)
[1]
  survivor count: 10 of 10

## CN(C)c1ccc2c(N(C)C)cc(N(C)C)nc2c1
[4]
  survivor count: 2 of 10
